According to the supplement of paper PMC11348887:
Where “and” joins values, the source holds several entries; their conditions need not be identical. Identical values can stand only once. Counter-ions that a name gives are not always drawn. Some of the results follow. Most values lie at the level of the controls, where differences are scatter.

Legend:
Details in all cases: 5 µM; treatment: days 7-14 after plating, readout day 21
[1] = test system: hPSC-derived cortical neurons (WA09); experiment: nucleus area z-score vs screen plate; higher = larger nuclei (more mature)
[2] = test system: hPSC-derived cortical neurons (WA09); experiment: total neurite length per nucleus (MAP2) z-score; higher = more neurite growth
[3] = test system: hPSC-derived cortical neurons (WA09); experiment: nucleus roundness z-score vs screen plate; higher = rounder nuclei (more mature)
[4] = test system: hPSC-derived cortical neurons (WA09); experiment: KCl-induced FOS+/EGR-1+ double-positive nuclei fraction z-score (KCl minus unstimulated); higher = stronger activity-induced IEG response

Compound	nucleus area z-score [1]	total neurite length per nucleus (z-score) [2]	nucleus roundness z-score [3]	KCl-induced FOS+/EGR-1+ double-positive nuclei fraction z-score [4]
CC1=C(C(=O)O)N2C(=O)[C@@H](NC(=O)[C@H](N)C3=CCC=CC3)[C@H]2SC1 [Cefradine]	0.26	1.2	1.03	0.512
CC(C)OC(=O)C(C(=O)OC(C)C)=C1SC=CS1 [Malotilate]	0.892	1.57	1.43	0.0615
Cc1cnc(-c2cnc(NCCNc3ccc(C#N)cn3)nc2-c2ccc(Cl)cc2Cl)[nH]1	–	-3.41 and -3.13	-3.75 and -3.32	-1.05 and -1.57
CCCc1nc2c(C)cc(-c3nc4ccccc4n3C)cc2n1Cc1ccc(-c2ccccc2C(=O)O)cc1 [Telmisartan]	0.827	-1.53	-0.608	-0.808
Clc1ccc(C2(c3ccc(-c4cn[nH]c4)cc3)CCNCC2)cc1	-1.93	0.326	0.51	-1.25
O=C(c1ccc(Cl)cc1Cl)n1nnc2ccccc21	0.33	1.1	1.37	0.348
O=C(/C=C\n1cnc(-c2cc(C(F)(F)F)cc(C(F)(F)F)c2)n1)N1CC(F)(F)C1	-5.52	-1.81	-5.81	7.38
O=C1c2ccccc2C(=O)c2c1ccc(O)c2O [Alizarin]	0.822	0.412	0.24	1.38
CC(C)NCC(O)c1cc(O)cc(O)c1 (stereo not drawn) [Metaproterenol Sulfate]	0.705	0.528	0.52	2.12
N[C@@H]1CCCN(c2c(/C=C3\SC(=O)NC3=O)cccc2-c2ccccc2)C1	0.0386	0.175	0.508	0.0798
CC[C@H](NC(=O)[C@H](C)NC)C(=O)N1C[C@@H](O)C[C@H]1Cc1c(-c2[nH]c3cc(F)ccc3c2C[C@@H]2C[C@H](O)CN2C(=O)[C@H](CC)NC(=O)[C@H](C)NC)[nH]c2cc(F)ccc12 [Birinapant]	-0.394	0.772	-0.371	0.777
